{"source": "patent US20230348376A1", "about": "(TEIJIN PHARMA LIMITED, priority 2020, published 2023)", "system": "rat oligodendrocyte progenitor cells", "assay": "Promotive activity of rat oligodendrocyte progenitor cell differentiation-2 (immunostaining of MBP)", "assay_type": "cell-based", "conditions": "vitamin D derivative 2 μM, T3 30 nM", "in_short": "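Vitamin D derivatives scored as symbols for promoting differentiation, read out by MBP immunostaining. OPCs taken from supernatant after about 22 h shaking (37 °C, 200 rpm) in separation medium.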", "data": [{"molecule": "C[C@H](CN1CC[C@@H](CCC(F)F)C1)[C@H]1CC[C@H]2/C(=C/C=C3C[C@@H](O)C[C@H](O)C3)CCC[C@]12C", "note": "[Compound B064, (1R,3R)-5-(2-((1R,3aS,7aR,E)-1-((S)-1-((R)-3-(3,3-difluoropropyl)pyrrolidin-1-yl)propan-2-yl)-7a-methyloctahydro-4H-inden-4-ylidene)ethylidene)cyclohexane-1,3-diol]", "values": [{"measurement": "Significant difference (t-test vs DMSO group)", "setting": "Test 2", "value": "**** (<0.0001)"}]}, {"molecule": "C=C1/C(=C\\C=C2/CCC[C@]3(C)[C@@H]([C@H](C)CN4CCC[C@H]4C(C)(C)OC)CC[C@@H]23)C[C@@H](O)C[C@@H]1O", "note": "[Compound F016, (1R,3S,Z)-5-(2-((1R,3aS,7aR,E)-1-((S)-1-((S)-2-(2-methoxypropan-2-yl)pyrrolidin-1-yl)propan-2-yl)-7a-methyloctahydro-4H-inden-4-ylidene)ethylidene)-4-methylenecyclohexane-1,3-diol]", "values": [{"measurement": "Significant difference (t-test vs DMSO group)", "setting": "Test 8", "value": "*** (<0.001)"}]}, {"molecule": "C[C@H](CN1CCOCC1(C)C)[C@H]1CC[C@H]2/C(=C/C=C3C[C@@H](O)C[C@H](O)C3)CCC[C@]12C", "note": "[Compound G006, (1R,3R)-5-(2-((1R,3aS,7aR,E)-1-((S)-1-(3,3-dimethylmorpholino)propan-2-yl)-7a-methyloctahydro-4H-inden-4-ylidene)ethylidene)cyclohexane-1,3-diol]", "values": [{"measurement": "Significant difference (t-test vs DMSO group)", "setting": "Test 4", "value": "**** (<0.0001)"}]}, {"molecule": "C=C1/C(=C\\C=C2/CCC[C@]3(C)[C@@H]([C@H](C)CN4CCC[C@@H]4C(C)(C)O)CC[C@@H]23)C[C@@H](O)C[C@@H]1O", "note": "[Compound F013, (1R,3S,Z)-5-(2-((1R,3aS,7aR,E)-1-((S)-1-((R)-2-(2-hydroxypropan-2-yl)pyrrolidin-1-yl)propan-2-yl)-7a-methyloctahydro-4H-inden-4-ylidene)ethylidene)-4-methylenecyclohexane-1,3-diol]", "values": [{"measurement": "Significant difference (t-test vs DMSO group)", "setting": "Test 9", "value": "**** (<0.0001)"}]}, {"molecule": "C=C1/C(=C\\C=C2/CCC[C@]3(C)[C@@H]([C@H](C)CN4CCCC[C@@H]4C)CC[C@@H]23)C[C@@H](O)C[C@H]1O", "note": "[Compound I001, (1R,3R,Z)-5-(2-((1R,3aS,7aR,E)-7a-methyl-1-((S)-1-((S)-2-methylpiperidin-1-yl)propan-2-yl)octahydro-4H-inden-4-ylidene)ethylidene)-4-methylenecyclohexane-1,3-diol]", "values": [{"measurement": "Significant difference (t-test vs DMSO group)", "setting": "Test 9", "value": "*** (<0.001)"}]}, {"molecule": "C[C@H](CN1CC[C@@H](C(F)F)C1)[C@H]1CC[C@H]2/C(=C/C=C3C[C@@H](O)C[C@H](O)C3)CCC[C@]12C", "note": "[Compound B026, (1R,3R)-5-(2-((1R,3aS,7aR,E)-1-((S)-1-((R)-3-(difluoromethyl)pyrrolidin-1-yl)propan-2-yl)-7a-methyloctahydro-4H-inden-4-ylidene)ethylidene)cyclohexane-1,3-diol]", "values": [{"measurement": "Significant difference (t-test vs DMSO group)", "setting": "Test 1", "value": "**** (<0.0001)"}]}, {"molecule": "C=C1/C(=C\\C=C2/CCC[C@]3(C)[C@@H]([C@H](C)CN4CC[C@H](C(F)F)C4)CC[C@@H]23)C[C@@H](O)C[C@@H]1O", "note": "[Compound B020, (1R,3S,Z)-5-(2-((1R,3aS,7aR,E)-1-((S)-1-((S)-3-(difluoromethyl)pyrrolidin-1-yl)propan-2-yl)-7a-methyloctahydro-4H-inden-4-ylidene)ethylidene)-4-methylenecyclohexane-1,3-diol]", "values": [{"measurement": "Significant difference (t-test vs DMSO group)", "setting": "Test 1", "value": "**** (<0.0001)"}]}, {"molecule": "C[C@H](CN1CC[C@@H](C(C)(F)F)C1)[C@H]1CC[C@H]2/C(=C/C=C3C[C@@H](O)C[C@H](O)C3)CCC[C@]12C", "note": "[Compound B034, (1R,3R)-5-(2-((1R,3aS,7aR,E)-1-((S)-1-((R)-3-(1,1-difluoroethyl)pyrrolidin-1-yl)propan-2-yl)-7a-methyloctahydro-4H-inden-4-ylidene)ethylidene)cyclohexane-1,3-diol]", "values": [{"measurement": "Significant difference (t-test vs DMSO group)", "setting": "Test 1", "value": "**** (<0.0001)"}]}, {"molecule": "C[C@H](CN1CCC[C@@H]1C(C)(C)O)[C@H]1CC[C@H]2/C(=C/C=C3C[C@@H](O)C[C@H](O)C3)CCC[C@]12C", "note": "[Compound G013, (1R,3R)-5-(2-((1R,3aS,7aR,E)-1-((S)-1-((R)-2-(2-hydroxypropan-2-yl)pyrrolidin-1-yl)propan-2-yl)-7a-methyloctahydro-4H-inden-4-ylidene)ethylidene)cyclohexane-1,3-diol]", "values": [{"measurement": "Significant difference (t-test vs DMSO group)", "setting": "Test 6", "value": "**** (<0.0001)"}]}, {"molecule": "C[C@H](CN1CC[C@H](C(F)F)C1)[C@H]1CC[C@H]2/C(=C/C=C3C[C@@H](O)C[C@H](O)C3)CCC[C@]12C", "note": "[Compound B022, (1R,3R)-5-(2-((1R,3aS,7aR,E)-1-((S)-1-((S)-3-(difluoromethyl)pyrrolidin-1-yl)propan-2-yl)-7a-methyloctahydro-4H-inden-4-ylidene)ethylidene)cyclohexane-1,3-diol]", "values": [{"measurement": "Significant difference (t-test vs DMSO group)", "setting": "Test 1", "value": "**** (<0.0001)"}]}, {"molecule": "C=C1/C(=C\\C=C2/CCC[C@]3(C)[C@@H]([C@H](C)CN4CCC[C@H]4C(C)(C)O)CC[C@@H]23)C[C@@H](O)C[C@@H]1O", "note": "[Compound F014, (1R,3S,Z)-5-(2-((1R,3aS,7aR,E)-1-((S)-1-((S)-2-(2-hydroxypropan-2-yl)pyrrolidin-1-yl)propan-2-yl)-7a-methyloctahydro-4H-inden-4-ylidene)ethylidene)-4-methylenecyclohexane-1,3-diol]", "values": [{"measurement": "Significant difference (t-test vs DMSO group)", "setting": "Test 8", "value": "*** (<0.001)"}]}, {"molecule": "C=C1/C(=C\\C=C2/CCC[C@]3(C)[C@@H]([C@H](C)CN4CCCC[C@H]4C)CC[C@@H]23)C[C@@H](O)C[C@@H]1O", "note": "[Compound F002, (1R,3S,Z)-5-(2-((1R,3aS,7aR,E)-7a-methyl-1-((S)-1-((R)-2-methylpiperidin-1-yl)propan-2-yl)octahydro-4H-inden-4-ylidene)ethylidene)-4-methylenecyclohexane-1,3-diol]", "values": [{"measurement": "Significant difference (t-test vs DMSO group)", "setting": "Test 7", "value": "** (<0.01)"}]}, {"molecule": "C[C@H](CN1CCCCC1(C)C)[C@H]1CC[C@H]2/C(=C/C=C3C[C@@H](O)C[C@H](O)C3)CCC[C@]12C", "note": "[Compound G003, (1R,3R)-5-(2-((1R,3aS,7aR,E)-1-((S)-1-(2,2-dimethylpiperidin-1-yl)propan-2-yl)-7a-methyloctahydro-4H-inden-4-ylidene)ethylidene)cyclohexane-1,3-diol]", "values": [{"measurement": "Significant difference (t-test vs DMSO group)", "setting": "Test 3", "value": "**** (<0.0001)"}]}, {"molecule": "C[C@H](CCN1CCCC[C@H]1C)[C@H]1CC[C@H]2/C(=C/C=C3C[C@@H](O)C[C@H](O)C3)CCC[C@]12C", "note": "[Compound G018, (1R,3R)-5-(2-((1R,3aS,7aR,E)-7a-methyl-1-((R)-4-((R)-2-methylpiperidin-1-yl)butan-2-yl)octahydro-4H-inden-4-ylidene)ethylidene)cyclohexane-1,3-diol]", "values": [{"measurement": "Significant difference (t-test vs DMSO group)", "setting": "Test 6", "value": "**** (<0.0001)"}]}]}
